From PubChem BioAssay AID1487 (National Center for Advancing Translational Sciences (NCATS), 2009)
Out of some 200,000 compounds screened, about 25 (0.01%) were called active. Inconclusive means that the source gave no clear call. Such entries were picked first, then a sample of the others. The call rests on the fitted dose curve; in most records, active means well fitted inhibition curve with a large enough effect in the signal ratio, with a control signal flat (not every such curve was filed as active); inconclusive means small, poorly fitted or top-dose-only effect, or effect the other way, or a change in a side signal; inactive means flat fitted curve, though single readings scatter; the % refers to the signal ratio. Where the call is inconclusive, the potency comes from a doubtful curve fit.

test: qHTS Assay for Modulators of Lamin A Splicing; conditions: HeLa LMNA splicing GFP/RFP minigene ratio, 48 h; ratio change, negative = inhibition: at 46.1 µM (top of the series) unless noted
Procedure, shortened: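 Read-out is the ratio of GFP to DsRed2 object intensity, acquired by 488 nm laser-scanning cytometry on HeLa lamin A-EGFP minigene reporter cells. Compound incubation 48 hrs at 37 °C in Opti-MEM with 2% FBS; DMSO 0.5% final.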
On the % scale 0 is the no-effect control and ±100 the full control effect; potency means the concentration at half of the fitted maximal effect.

SMILES | ratio change, negative = inhibition | Potency
COc1ccc(C(=O)CSc2nnc(-c3ccco3)n2C)cc1 | inactive: 4.89% | –
Cc1c(C(=O)N(Cc2ccc(Cl)cc2)CC2CCCO2)oc2ccc(F)cc12 (stereo unspecified) | inconclusive: -22.5% [at 46 µM] | –
Nc1ccccc1S(N)(=O)=O | inconclusive: -12.9% | –
O=C(Cn1cccc1)NCc1cccs1 | inactive: 11.5% | –
O=C(CS(=O)(=O)c1cccc2nsnc12)Nc1cc(F)ccc1F | inactive: -12.8% [at 46 µM] | –
C=CCn1c(N)c(C(=O)OCC)sc1=S | inactive: 12.6% | –
Cc1ccc2c(c1C)NC(C(=O)O)C1CC=CC21 (stereo unspecified) | inconclusive: -5.83% [at 46 µM] | –
COc1ccc(NC(=O)CN2C(=O)c3ccccc3Sc3ccc(C(=O)N4CCOCC4)cc32)c(OC)c1 | inconclusive: -6.79% [at 46 µM] | –
O=C(CSCc1nc2ccccc2[nH]1)Nc1ccc2ccccc2c1 | inactive: -2.61% | –
O=C(Nc1ccc(Cl)c(Cl)c1)Nc1nnc(CSc2ccccc2)s1 | – | inconclusive: 5.62 µM [falling, single point]
c1cncc(-c2nc3c(ccc4ccccc43)[nH]2)c1 | inconclusive: 5.46% | –
Cc1nc2c(C(=O)NCc3ccc4c(c3)OCO4)cnn2c(C)c1Cc1ccc(F)cc1Cl | inactive: 5.6% [at 0.0737 µM] | –
CC(=O)CC1OC(=O)C(Br)=C1NCc1ccccc1 (stereo unspecified) | – | inconclusive: 35.5 µM [fluorescent, single point]
O=C(CN1CCN(c2ccccc2)CC1)Nc1ccccc1Cl | inactive: -14.6% [at 46 µM] | –
O=C(CSc1nnc(CNC(=O)c2c(F)cccc2Cl)o1)NCc1ccc2c(c1)OCO2 | inconclusive: 7.71% | –
COc1ccc(OC)c(C2C3=C(N=c4s/c(=C\c5cccc(O)c5)c(=O)n42)c2ccccc2CC3)c1 (stereo unspecified) | – | inconclusive: 35.5 µM [falling, single point]
CC1(c2ccccc2)CC(C)(C)N(C(=O)c2cc([N+](=O)[O-])cc([N+](=O)[O-])c2)c2ccccc21 (stereo unspecified) | inconclusive: 1.85% | –
COc1ccc(/C=N/NC(=O)c2ccc(N(C)S(=O)(=O)c3ccccc3)cc2)cc1 | inconclusive: -21% [at 46 µM] | –
O=C(NCCc1ccccc1)C1CCN(S(=O)(=O)N2CCCCCC2)CC1 | inconclusive: -1.14% [at 46 µM] | –
CCCN1CCc2[nH]c(=S)[nH]c(=O)c2C1 | inactive: -4.26% | –
Cc1ccc(CNC(=O)c2ccc(N3CCCC3=O)cc2)cc1 | inactive: -1.34% | –
c1cc2c(cc1Cn1cnnn1)OCO2 | inactive: 11.5% | –

Rewritten with each value named: entries from further up
O=C(CS(=O)(=O)c1cccc2nsnc12)Nc1cc(F)ccc1F
  ratio change, negative = inhibition: inactive: -12.8% [at 46 µM]
Cc1ccc2c(c1C)NC(C(=O)O)C1CC=CC21 (stereo unspecified)
  ratio change, negative = inhibition: inconclusive: -5.83% [at 46 µM]

(next part)

SMILES | ratio change, negative = inhibition | Potency
COc1ccc(N2CCN(CCCNC(=O)c3cc(Nc4ccccc4OC)nc4ccccc34)CC2)cc1 | inconclusive: -3.52% [at 46 µM] | –
Cn1c(C(=O)N2CCc3ccccc3C2)cc2oc3ccccc3c21 | inconclusive: 3.24% | –
CN(C(=O)CSc1nc2ccccc2n1CC(=O)N(C)c1ccc(F)cc1)c1ccccc1 | inconclusive: 17.2% [at 46 µM] | –
Cc1ccccc1-n1ncc2c(SCC(=O)N3c4ccccc4CC3C)ncnc21 (stereo unspecified) | inconclusive: -11.6% | –
O=C(CSc1nccn1Cc1ccc(F)cc1)Nc1ccc2c(c1)OCO2 | inactive: -8.01% [at 46 µM] | –
Cc1ccc(CNC(=O)CN2C(=O)C3(SCC(=O)N3c3cc(C)cc(C)c3)c3ccccc32)cc1 (stereo unspecified) | inconclusive: -12.2% [at 46 µM] | –
Cn1c(=O)c2c(nc(SCC(=O)O)n2Cc2cc3c(cc2Cl)OCO3)n(C)c1=O | inactive: -0.879% | –
COc1cc(NC(=O)CSc2ncnc3c2cnn3Cc2ccccc2)cc(OC)c1 | inactive: 4.87% | –
O=C(CSCc1ccccc1)N=Nc1c(O)[nH]c2ccccc12 | inactive: -19.6% | –
NC(=O)C1CCN(CCS(=O)(=O)c2ccc(Cl)cc2)CC1 | inconclusive: 97% [at 46 µM] | –
Cc1ccsc1-c1nc(CSCC(=O)N2CCN(c3ccccc3)CC2)c(C)o1 | inactive: -18.1% | –
Cn1cc(-c2cc3n(n2)CCC(=O)N3CCCC(=O)Nc2ccc(F)cc2F)c2ccccc21 | inactive: 22.2% [at 46 µM] | –
Nc1nc(NCc2ccco2)nc(N2CCCCCC2)c1[N+](=O)[O-] | – | inconclusive: 7.08 µM [fluorescent, partial curve]
CC1=Nc2cccc3cccc(c23)N1 | inconclusive: -34% | –
O=S(=O)(NCCc1ccc(F)cc1)c1cccc2cccnc12 | inconclusive: 11.4% [at 46 µM] | –
CCOc1cc(N2CCOCC2)c(OCC)cc1NC(=O)[C@H](C)N1C(=O)C2CC=CCC2C1=O (stereo partly specified) | inactive: 8.37% [at 46 µM] | –
CCOCCn1c(SC)nc2c1c(=O)[nH]c(=O)n2C | inactive: -7.3% | –
OCCN1CCN(CC/C=C2\c3ccccc3Sc3ccc(C(F)(F)F)cc32)CC1 | inconclusive: -16.7% | –
CC1Nc2ccccc2C(=O)N1NC(=O)c1ccc(Br)cc1 (stereo unspecified) | inconclusive: 6.51% [at 9.22 µM] | –
O=C(CCn1c(=O)c2ccccc2n(Cc2ccccc2)c1=O)NCc1ccc2c(c1)OCO2 | inactive: 18.8% | –
O=C(CSc1ncc(CO)n1Cc1ccc(Cl)cc1)NCc1ccc(F)cc1 | inconclusive: -1.3% [at 46 µM] | –
COc1ccccc1NC(=S)N(Cc1ccco1)Cc1cc2ccc(C)c(C)c2[nH]c1=O | inconclusive: 8.62% | –

SMILES | ratio change, negative = inhibition | Potency
Cc1[nH]n(-c2ccccc2)c(=S)c1C=Nc1ccc([N+](=O)[O-])cc1 | inactive: 12.4% | –
CCOC(=O)c1cccc(NC(=O)CSc2nnc(-c3ccoc3C)n2CCOC)c1 | inactive: 0.878% | –
CC(=O)Nc1ccc(OC(F)(F)C(F)F)c(NC(C)=O)c1 | inactive: -7.06% | –
COc1ccc(NC(=S)N2CCN(c3ccccn3)CC2)cc1OC | inconclusive: -3.22% | –
O=C(CSC1=Nc2ccccc2N=C(c2ccc(F)cc2)C1)NCc1ccccc1Cl | inconclusive: -7.76% [at 46 µM] | –
CN=C(Nc1cc(Cl)ccc1Cl)SC1CC(=O)N(c2ccc(C(=O)OC)cc2)C1=O (stereo unspecified) | – | inconclusive: 35.5 µM [inhibitor, single point]
CC1(C)CC(=O)c2cc(N=C/C(C(=O)c3ccccc3)=C(\O)c3ccccc3)c(=O)oc2C1 | inactive: 0.0652% [at 46 µM] | –
O=C(Nc1ccncc1)c1ccc2c(c1)OCCO2 | inconclusive: -35.8% | –
O=C(Nc1ccc(Cl)c(-c2nc3ccccc3[nH]2)c1)c1ccc2c(c1)OCO2 | inconclusive: -40% | –
CCOC(=O)Cc1cc(=O)n2[nH]cc(-c3cccc(Br)c3)c2n1 | inconclusive: -31.4% [at 46 µM] | –
CN(CCC#N)C(=O)CSc1nnc(-c2ccco2)n1N | inactive: -17.5% [at 46 µM] | –
CCC(C)NC(=O)[C@H](CSCc1ccccc1)N1Cc2ccccc2C1=O (stereo partly specified) | inactive: 3.68% | –
COc1cccc(CNc2ncc(Br)cc2Br)c1O | inconclusive: -16.9% | –
O=C(NCC1CCCO1)c1cccc(N2CCCC2=O)c1 (stereo unspecified) | inactive: 1.14% | –
CN1CCN(c2nc3ccccc3nc2C(C#N)C(=O)OC2CCCCC2)CC1 (stereo unspecified) | inactive: -8.59% | –
CCOc1cc(C)cc2oc(=O)cc(-c3ccccc3)c12 | inconclusive: 30.3% [at 46 µM] | –
COc1ccc(N2C(=O)CCC2=O)c(OC)c1 | inconclusive: 1.23% [at 46 µM] | –
CC(=O)c1ccc(N2CCN(C(=O)c3ccc(Cn4c(=O)[nH]c5ccccc5c4=O)cc3)CC2)cc1 | – | inconclusive: 35.5 µM [inhibitor, single point]
Clc1ccccc1CSc1ncn(-c2ccccc2)n1 | inconclusive: 4.23% | –
C=CCSC1=N/C(=C\c2ccc3c(c2)OCO3)C(=O)S1 | inactive: 1.49% | –
Cc1cnc(NC(=O)c2sc3ccccc3c2Cl)s1 | inactive: -4.99% | –
CCN1C(=O)C(CC(=O)Nc2ccc(OC)cc2)N(CCN2CCOCC2)C1=S (stereo unspecified) | inconclusive: 18.6% [at 46 µM] | –

Among those listed so far, these have a nitro group on carbon.
SMILES | ratio change, negative = inhibition | Potency
CC1(c2ccccc2)CC(C)(C)N(C(=O)c2cc([N+](=O)[O-])cc([N+](=O)[O-])c2)c2ccccc21 (stereo unspecified) | inconclusive: 1.85% | –
Nc1nc(NCc2ccco2)nc(N2CCCCCC2)c1[N+](=O)[O-] | – | inconclusive: 7.08 µM [fluorescent, partial curve]
Cc1[nH]n(-c2ccccc2)c(=S)c1C=Nc1ccc([N+](=O)[O-])cc1 | inactive: 12.4% | –

The listing continues.

SMILES | ratio change, negative = inhibition | Potency
Oc1ccccc1C1OCC2(CO1)COC(c1ccccc1O)OC2 (stereo unspecified) | inconclusive: -7.43% | –
Cc1ccc(-n2cccn2)c(CN2CCC(CO)(CCc3ccccc3)CC2)c1 | inconclusive: -7.49% [at 46 µM] | –
COc1ccc(N2C(=O)/C(=C\c3ccco3)N=C2SCC(=O)N(C(C)C)C(C)C)cc1Cl | inactive: -3.32% | –
CC(=O)c1cccc(NC(=O)c2cc3nc(-c4ccc(Br)cc4)cc(C(F)(F)F)n3n2)c1 | inactive: -11.4% [at 46 µM] | –
CC(C(=O)OCC(=O)c1ccccc1)N1C(=O)C2C3CCC(C3)C2C1=O (stereo unspecified) | inactive: -1.47% [at 46 µM] | –
Cc1cc(C)c(C#N)c(SCc2nnc(-c3ccccc3)o2)n1 | – | inconclusive: 35.5 µM [fluorescent, single point]
Cc1ccccc1Nc1nc(Nc2ccccc2C)nc(SC2=NCCS2)n1 | – | inconclusive: 35.5 µM [falling, single point]
CCCN(c1ccc(C(C)C)cc1)S(=O)(=O)c1c(C)[nH]c(=O)[nH]c1=O | inconclusive: -10.6% | –
COc1ccccc1NC(CC(=O)c1ccccc1)C(=O)OCC(=O)c1ccc(C)cc1 (stereo unspecified) | inactive: -12.6% | –
O=C(NC1CCCCC1)C1CCN(c2cnccn2)CC1 | inactive: 4.66% | –
COCc1cc(CN2CCN(Cc3ccsc3)C(CCO)C2)ccc1OC (stereo unspecified) | inconclusive: 1.31% [at 46 µM] | –
CC1=NN(C(=O)c2ccc(Cn3cc(Br)c([N+](=O)[O-])n3)o2)C(O)(C(F)(F)F)C1 (stereo unspecified) | inconclusive: 2.19% | –
CC1=C(C(=O)Nc2ccc(C)cc2C)C(c2ccc(Cl)cc2)n2nc(C(=O)OC(C)C)nc2N1 (stereo unspecified) | inactive: -10.2% | –
COc1ccc(OC)c(NC(=O)Cn2cnc3c(oc4ccccc43)c2=O)c1 | inconclusive: -3.16% [at 46 µM] | –
O=C(O)c1ccc(N/N=C/c2ccc(F)c(F)c2)cc1 | inactive: -1.5% | –
COC(=O)c1ccccc1NC(=S)NC(=O)C1CC1 | inactive: 3.65% | –
Cc1ccc(S(=O)(=O)NCCCCCC(=O)N(C)C)cc1 | inactive: 6.91% | –
C1COC(NC(C2CC2)C2CC2)=N1 | inconclusive: -13.5% | –
COc1ccccc1OCCNS(=O)(=O)c1ccc2oc3ccccc3c2c1 | – | inconclusive: 35.5 µM [falling, single point]
NC(N)=N/N=C/c1ccc(OS(=O)(=O)c2ccccc2)cc1 | inconclusive: -6.46% [at 46 µM] | –
